# Data published in the supplement of paper PMC8728848.
# Some of the results follow.
# B1: Clec12b (Mus musculus), Q149M0 (protein)
# chain: MSDEVTYATLMLQDSARVRGNQDGNNLRKEGHPAQSSLWRGAALSLMTLCLVLVTGLVTLATMFLQVSNDINSDSEKLSQLQKSIHPQQDNLSESLNSSRKSLTEESLQSQISALLERQEQMATKLCKEFLIHASDHKCNPCPKTWQWYGNSCYYFSINEEKSWSDSRKDCIDKNATLVKIDSTEERDLLQSQLSLTFSFFWLGLSWNSSGRNWLWEDGSFPPPTLFSDKELASFNGSRDCAYFERGNIYASRCSAEIPWICEKTASLVKTEDLD
# Key:
# Assay in all cases: glycan array binding signal (z-score within array); higher = stronger binding
# Details in all cases: glycan notation: IUPAC condensed, linker removed
# [1] = molecular target: Gal(b1-4)GlcNAc(b1-3)Gal(b1-4)GlcNAc(b1-2)Man(a1-3)[Gal(b1-4)GlcNAc(b1-3)Gal(b1-4)GlcNAc(b1-2)Man(a1-6)]Man(b1-4)GlcNAc(b1-4)[Fuc(a1-6)]GlcNAc
# Outline: (§1)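 Columns mapping to the same glycan were averaged after glycan names were converted to IUPAC-condensed notation. The data come from 3228 arrays in the Consortium for Functional Glycomics database, limited to those with an available protein sequence. Binding is reported as a within-array Z-score averaged across arrays of one protein sequence and across linkers.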
# [2] = molecular target: Gal(b1-4)GlcNAc(b1-3)Gal(b1-4)GlcNAc(b1-2)[Gal(b1-4)GlcNAc(b1-3)Gal(b1-4)GlcNAc(b1-6)]Man(a1-6)[Gal(b1-4)GlcNAc(b1-3)Gal(b1-4)GlcNAc(b1-2)Man(a1-3)]Man(b1-4)GlcNAc(b1-4)GlcNAc
# Outline: as §1
# [3] = molecular target: Gal(b1-4)GlcNAc(b1-3)Gal(b1-4)GlcNAc(b1-2)[Gal(b1-4)GlcNAc(b1-3)Gal(b1-4)GlcNAc(b1-6)]Man(a1-6)[Gal(b1-4)GlcNAc(b1-3)Gal(b1-4)GlcNAc(b1-2)Man(a1-3)]Man(b1-4)GlcNAc(b1-4)[Fuc(a1-6)]GlcNAc
# Outline: as §1
# [4] = molecular target: Gal(b1-4)GlcNAc(b1-3)Gal(b1-4)GlcNAc(b1-3)Gal(b1-4)GlcNAc
# Outline: as §1
# [5] = molecular target: Gal(b1-4)GlcNAc(b1-3)Gal(b1-4)GlcNAc(b1-3)Gal(b1-4)GlcNAc(b1-2)Man(a1-3)[Gal(b1-4)GlcNAc(b1-3)Gal(b1-4)GlcNAc(b1-3)Gal(b1-4)GlcNAc(b1-2)Man(a1-6)]Man(b1-4)GlcNAc(b1-4)GlcNAc
# Outline: as §1
# [6] = molecular target: Gal(b1-4)GlcNAc(b1-3)Gal(b1-4)GlcNAc(b1-3)Gal(b1-4)GlcNAc(b1-2)Man(a1-3)[Gal(b1-4)GlcNAc(b1-3)Gal(b1-4)GlcNAc(b1-3)Gal(b1-4)GlcNAc(b1-2)Man(a1-6)]Man(b1-4)GlcNAc(b1-4)[Fuc(a1-6)]GlcNAc
# Outline: as §1
# [7] = molecular target: Gal(b1-4)GlcNAc(b1-3)Gal(b1-4)GlcNAc(b1-3)Gal(b1-4)GlcNAc(b1-2)[Gal(b1-4)GlcNAc(b1-3)Gal(b1-4)GlcNAc(b1-3)Gal(b1-4)GlcNAc(b1-6)]Man(a1-6)[Gal(b1-4)GlcNAc(b1-3)Gal(b1-4)GlcNAc(b1-3)Gal(b1-4)GlcNAc(b1-2)Man(a1-3)]Man(b1-4)GlcNAc(b1-4)[Fuc(a1-6)]GlcNAc
# Outline: as §1
# [8] = molecular target: Gal(b1-4)GlcNAc(b1-3)Gal(b1-4)GlcNAc(b1-3)Gal(b1-4)GlcNAc(b1-3)Gal(b1-4)GlcNAc(b1-2)Man(a1-3)[Gal(b1-4)GlcNAc(b1-3)Gal(b1-4)GlcNAc(b1-3)Gal(b1-4)GlcNAc(b1-3)Gal(b1-4)GlcNAc(b1-2)Man(a1-6)]Man(b1-4)GlcNAc(b1-4)GlcNAc
# Outline: as §1
# [9] = molecular target: Gal(b1-4)GlcNAc(b1-3)Gal(b1-4)GlcNAc(b1-3)Gal(b1-4)GlcNAc(b1-3)Gal(b1-4)GlcNAc(b1-2)Man(a1-3)[Gal(b1-4)GlcNAc(b1-3)Gal(b1-4)GlcNAc(b1-3)Gal(b1-4)GlcNAc(b1-3)Gal(b1-4)GlcNAc(b1-2)Man(a1-6)]Man(b1-4)GlcNAc(b1-4)[Fuc(a1-6)]GlcNAc
# Outline: as §1
# [10] = molecular target: Gal(b1-4)GlcNAc(b1-3)Gal(b1-4)GlcNAc(b1-3)Gal(b1-4)GlcNAc(b1-3)Gal(b1-4)GlcNAc(b1-2)[Gal(b1-4)GlcNAc(b1-3)Gal(b1-4)GlcNAc(b1-3)Gal(b1-4)GlcNAc(b1-3)Gal(b1-4)GlcNAc(b1-6)]Man(a1-6)[Gal(b1-4)GlcNAc(b1-3)Gal(b1-4)GlcNAc(b1-3)Gal(b1-4)GlcNAc(b1-3)Gal(b1-4)GlcNAc(b1-2)Man(a1-3)]Man(b1-4)GlcNAc(b1-4)[Fuc(a1-6)]GlcNAc
# Outline: as §1
# [11] = molecular target: Gal(b1-4)GlcNAc(b1-3)Gal(b1-4)GlcNAc(b1-3)Gal(b1-4)GlcNAc(b1-3)Gal(b1-4)GlcNAc(b1-3)Gal(b1-4)GlcNAc(b1-2)Man(a1-3)[Gal(b1-4)GlcNAc(b1-3)Gal(b1-4)GlcNAc(b1-3)Gal(b1-4)GlcNAc(b1-3)Gal(b1-4)GlcNAc(b1-3)Gal(b1-4)GlcNAc(b1-2)Man(a1-6)]Man(b1-4)GlcNAc(b1-4)GlcNAc
# Outline: as §1
# [12] = molecular target: Gal(b1-4)GlcNAc(b1-3)Gal(b1-4)GlcNAc(b1-3)Gal(b1-4)GlcNAc(b1-3)Gal(b1-4)GlcNAc(b1-3)Gal(b1-4)GlcNAc(b1-2)Man(a1-3)[Gal(b1-4)GlcNAc(b1-3)Gal(b1-4)GlcNAc(b1-3)Gal(b1-4)GlcNAc(b1-3)Gal(b1-4)GlcNAc(b1-3)Gal(b1-4)GlcNAc(b1-2)Man(a1-6)]Man(b1-4)GlcNAc(b1-4)[Fuc(a1-6)]GlcNAc
# Outline: as §1
# [13] = molecular target: Gal(b1-4)GlcNAc(b1-3)Gal(b1-4)GlcNAc(b1-3)Gal(b1-4)GlcNAc(b1-3)Gal(b1-4)GlcNAc(b1-3)Gal(b1-4)GlcNAc(b1-2)[Gal(b1-4)GlcNAc(b1-3)Gal(b1-4)GlcNAc(b1-3)Gal(b1-4)GlcNAc(b1-3)Gal(b1-4)GlcNAc(b1-3)Gal(b1-4)GlcNAc(b1-6)]Man(a1-6)[Gal(b1-4)GlcNAc(b1-3)Gal(b1-4)GlcNAc(b1-3)Gal(b1-4)GlcNAc(b1-3)Gal(b1-4)GlcNAc(b1-3)Gal(b1-4)GlcNAc(b1-2)Man(a1-3)]Man(b1-4)GlcNAc(b1-4)[Fuc(a1-6)]GlcNAc
# Outline: as §1
# [14] = molecular target: Gal(b1-4)GlcNAc(b1-3)Gal(b1-4)GlcNAc(b1-3)Gal(b1-4)GlcNAc(b1-3)Gal(b1-4)GlcNAc(b1-3)Gal(b1-4)GlcNAc(b1-3)Gal(b1-4)GlcNAc(b1-2)Man(a1-3)[Gal(b1-4)GlcNAc(b1-3)Gal(b1-4)GlcNAc(b1-3)Gal(b1-4)GlcNAc(b1-3)Gal(b1-4)GlcNAc(b1-3)Gal(b1-4)GlcNAc(b1-3)Gal(b1-4)GlcNAc(b1-2)Man(a1-6)]Man(b1-4)GlcNAc(b1-4)GlcNAc
# Outline: as §1
# [15] = molecular target: Gal(b1-4)GlcNAc(b1-3)Gal(b1-4)GlcNAc(b1-3)GalNAc
# Outline: as §1
# [16] = molecular target: Gal(b1-4)GlcNAc(b1-3)Gal(b1-4)GlcNAc(b1-3)[Gal(b1-4)GlcNAc(b1-3)Gal(b1-4)GlcNAc(b1-6)]GalNAc
# Outline: as §1
# [17] = molecular target: Gal(b1-4)GlcNAc(b1-3)Gal(b1-4)GlcNAc(b1-6)[Gal(b1-3)]GalNAc
# Outline: as §1
# [18] = molecular target: Gal(b1-4)GlcNAc(b1-3)Gal(b1-4)[Fuc(a1-3)]GlcNAc(b1-3)Gal(b1-4)[Fuc(a1-3)]GlcNAc
# Outline: as §1
# [19] = molecular target: Gal(b1-4)GlcNAc(b1-3)GalNAc
# Outline: as §1
# [20] = molecular target: Gal(b1-4)GlcNAc(b1-3)[Fuc(a1-3)GlcNAc(b1-6)]Gal(b1-4)Glc
# Outline: as §1
# [21] = molecular target: Gal(b1-4)GlcNAc(b1-3)[Gal(b1-4)GlcNAc(b1-6)]Gal(b1-4)GlcNAc
# Outline: as §1
# [22] = molecular target: Gal(b1-4)GlcNAc(b1-3)[GlcNAc(b1-6)]Gal(b1-4)GlcNAc
# Outline: as §1
# [23] = molecular target: Gal(b1-4)GlcNAc(b1-6)Gal(b1-4)GlcNAc
# Outline: as §1
# [24] = molecular target: Gal(b1-4)GlcNAc(b1-6)GalNAc
# Outline: as §1
# [25] = molecular target: Gal(b1-4)GlcNAc(b1-6)[Gal(b1-3)]GalNAc
# Outline: as §1
# [26] = molecular target: Gal(b1-4)GlcNAc(b1-6)[Gal(b1-4)GlcNAc(b1-3)]GalNAc
# Outline: as §1
# [27] = molecular target: Gal(b1-4)GlcNAc6P
# Outline: as §1
# [28] = molecular target: Gal(b1-6)Gal
# Outline: as §1
# [29] = molecular target: Gal3S(b1-3)GalNAc
# Outline: as §1
# [30] = molecular target: Gal3S(b1-3)GlcNAc
# Outline: as §1
# [31] = molecular target: Gal3S(b1-3)[Fuc(a1-4)]GlcNAc
# Outline: as §1
# [32] = molecular target: Gal3S(b1-4)Glc
# Outline: as §1
# [33] = molecular target: Gal3S(b1-4)Glc6S
# Outline: as §1
# [34] = molecular target: Gal3S(b1-4)GlcNAc
# Outline: as §1
# [35] = molecular target: Gal3S(b1-4)[Fuc(a1-3)]Glc6S
# Outline: as §1
# [36] = molecular target: Gal3S(b1-4)[Fuc(a1-3)]GlcNAc
# Outline: as §1
# [37] = molecular target: Gal3S(b1-4)[Fuc(a1-3)]GlcNAc6S
# Outline: as §1
# [38] = molecular target: Gal3S4S(b1-4)GlcNAc
# Outline: as §1
# [39] = molecular target: Gal3S6S(b1-4)GlcNAc
# Outline: as §1
# [40] = molecular target: Gal3S6S(b1-4)GlcNAc6S
# Outline: as §1
# [41] = molecular target: Gal4S(b1-4)GlcNAc
# Outline: as §1
# [42] = molecular target: Gal4S6S(b1-4)GlcNAc
# Outline: as §1
# [43] = molecular target: Gal6P(b1-4)GlcNAc
# Outline: as §1
# [44] = molecular target: Gal6S(b1-3)GlcNAc
# Outline: as §1
# [45] = molecular target: Gal6S(b1-3)GlcNAc6S
# Outline: as §1
binder,measurement,setting,value
B1,glycan array binding signal (z-score),[1],-0.154
same,glycan array binding signal (z-score),[2],0.532
same,glycan array binding signal (z-score),[3],0.612
same,glycan array binding signal (z-score),[4],-0.352
same,glycan array binding signal (z-score),[5],0.747
same,glycan array binding signal (z-score),[6],0.125
same,glycan array binding signal (z-score),[7],0.621
same,glycan array binding signal (z-score),[8],0.598
same,glycan array binding signal (z-score),[9],-0.356
same,glycan array binding signal (z-score),[10],0.114
same,glycan array binding signal (z-score),[11],0.028
same,glycan array binding signal (z-score),[12],-0.022
same,glycan array binding signal (z-score),[13],-0.146
same,glycan array binding signal (z-score),[14],0.314
same,glycan array binding signal (z-score),[15],-0.489
same,glycan array binding signal (z-score),[16],0.566
same,glycan array binding signal (z-score),[17],-0.381
same,glycan array binding signal (z-score),[18],-0.078
same,glycan array binding signal (z-score),[19],-0.173
same,glycan array binding signal (z-score),[20],-0.595
same,glycan array binding signal (z-score),[21],0.133
same,glycan array binding signal (z-score),[22],-0.625
same,glycan array binding signal (z-score),[23],-0.107
same,glycan array binding signal (z-score),[24],-0.428
same,glycan array binding signal (z-score),[25],-0.227
same,glycan array binding signal (z-score),[26],0.417
same,glycan array binding signal (z-score),[27],0.097
same,glycan array binding signal (z-score),[28],-0.5
same,glycan array binding signal (z-score),[29],-0.284
same,glycan array binding signal (z-score),[30],0.026
same,glycan array binding signal (z-score),[31],-0.44
same,glycan array binding signal (z-score),[32],1.5
same,glycan array binding signal (z-score),[33],0.531
same,glycan array binding signal (z-score),[34],-0.199
same,glycan array binding signal (z-score),[35],2.1
same,glycan array binding signal (z-score),[36],-0.281
same,glycan array binding signal (z-score),[37],0.41
same,glycan array binding signal (z-score),[38],-0.044
same,glycan array binding signal (z-score),[39],-0.112
same,glycan array binding signal (z-score),[40],0.23
same,glycan array binding signal (z-score),[41],-0.218
same,glycan array binding signal (z-score),[42],-0.671
same,glycan array binding signal (z-score),[43],-0.695
same,glycan array binding signal (z-score),[44],0.386
same,glycan array binding signal (z-score),[45],-0.655

# Quoted at random: four records from the list.
binder,measurement,setting,value
B1,glycan array binding signal (z-score),[24],-0.428
same,glycan array binding signal (z-score),[19],-0.173
same,glycan array binding signal (z-score),[28],-0.5
same,glycan array binding signal (z-score),[33],0.531
